Results are given in words; binding and its absence hold for the method and conditions named. In cells and extracts the contact can be indirect. Some results given as binding are weak or reduced against the parent protein; the word gives no strength. Each block holds one molecule with its values, some of them ahead of it.
Columns and labels:
[1] = target: T1, Z-DNA binding protein 1 (ZBP1), endogenous in mouse pulmonary vascular endothelial cells (mouse (endogenous in MPVECs)) (UniProt Q9QY24); assay: proximity ligation; Duolink PLA on fixed primary MPVECs with antibodies to the two proteins; cells treated with LPS and rmCIRP for 36 h (ZBP1-RIPK3), or with LPS alone or LPS and rmCIRP for 12 h (ZBP1-CIRP, ZBP1-TRIM32)
T1 sequence: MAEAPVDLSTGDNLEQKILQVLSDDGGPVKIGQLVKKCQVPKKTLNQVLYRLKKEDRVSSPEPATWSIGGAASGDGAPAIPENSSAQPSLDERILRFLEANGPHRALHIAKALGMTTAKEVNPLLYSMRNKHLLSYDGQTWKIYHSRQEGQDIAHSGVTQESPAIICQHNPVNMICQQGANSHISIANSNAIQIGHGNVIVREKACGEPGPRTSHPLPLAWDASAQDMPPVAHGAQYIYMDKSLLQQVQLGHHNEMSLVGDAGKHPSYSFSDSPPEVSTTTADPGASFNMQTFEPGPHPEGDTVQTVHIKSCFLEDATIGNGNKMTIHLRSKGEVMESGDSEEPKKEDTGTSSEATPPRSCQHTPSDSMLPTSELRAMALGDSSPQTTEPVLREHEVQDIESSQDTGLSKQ

Chains of the proteins cited; added tags and fusions are not shown.
UniProt Q9QZL0: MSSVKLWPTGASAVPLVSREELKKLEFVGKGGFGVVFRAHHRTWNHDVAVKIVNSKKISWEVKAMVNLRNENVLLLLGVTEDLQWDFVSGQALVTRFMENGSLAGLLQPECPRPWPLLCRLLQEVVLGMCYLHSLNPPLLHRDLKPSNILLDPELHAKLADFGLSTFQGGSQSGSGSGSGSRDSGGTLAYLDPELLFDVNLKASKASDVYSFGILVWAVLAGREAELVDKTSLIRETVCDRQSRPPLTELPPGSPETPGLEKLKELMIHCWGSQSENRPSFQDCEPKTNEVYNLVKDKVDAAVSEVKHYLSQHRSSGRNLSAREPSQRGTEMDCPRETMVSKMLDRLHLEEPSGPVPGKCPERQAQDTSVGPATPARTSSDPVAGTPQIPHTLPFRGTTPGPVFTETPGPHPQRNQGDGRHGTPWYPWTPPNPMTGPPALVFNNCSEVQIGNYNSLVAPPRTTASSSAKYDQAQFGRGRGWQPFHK

[2] = target: T1, Z-DNA binding protein 1 (ZBP1), endogenous in mouse pulmonary vascular endothelial cells (mouse (endogenous in MPVECs)); assay: co-IP; IP with anti-ZBP1 or control IgG from lysates of WT primary MPVECs after 36 h of LPS and rmCIRP; immunoblot
[3] = target: T1, Z-DNA binding protein 1 (ZBP1), endogenous in mouse pulmonary vascular endothelial cells (mouse (endogenous in MPVECs)); assay: proximity ligation; Duolink PLA on fixed primary MPVECs with antibodies to the two proteins; cells treated with LPS and rmCIRP for 36 h (ZBP1-RIPK3), or with LPS alone or LPS and rmCIRP for 12 h (ZBP1-CIRP, ZBP1-TRIM32); remark: listed apart in the source
[4] = target: T1, Z-DNA binding protein 1 (ZBP1), endogenous in mouse pulmonary vascular endothelial cells (mouse (endogenous in MPVECs)); assay: co-IP; cells treated with LPS alone or LPS with rmCIRP for 12 h; CIRP and ZBP1 in the precipitated complexes shown by Western blotting; precipitating antibody not stated

binding [1]: binds
binding [2]: binds
Molecule: receptor-interacting protein kinase 3 (RIPK3), endogenous in MPVECs (from UniProt Q9QZL0 1-486)

binding [3]: binds
binding [4]: binds
B1: recombinant mouse cold-inducible RNA-binding protein (rmCIRP) (protein, UniProt P60824 1-172)
chain: MASDEGKLFVGGLSFDTNEQALEQVFSKYGQISEVVVVKDRETQRSRGFGFVTFENIDDAKDAMMAMNGKSVDGRQIRVDQAGKSSDNRSRGYRGGSAGGRGFFRGGRSRGRGFSRGGGDRGYGGGRFESRSGGYGGSRDYYASRSQGGSYGYRSSGGSYRDSYDSYATHNE
